Most values lie at the floor of the assay. Slopes are relative: functional sequences can read slightly below zero.
Tested on: Saccharomyces cerevisiae PS128 hsf1 delta, HSF1(1-493) fusion
Assay: growth estimate (transactivation domain function in HSF1 fusion, heat-shock survival) (a.u. (slope of normalised read count over time)); higher = stronger growth at 37°C, i.e. more transactivation activity
Settings: library: random library
Description: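 Random 60-nt DNA library encoding peptides of up to 20 aa, fused to the C-terminus of yeast HSF1 residues 1-493 (C-terminal TAD deleted) and expressed from the native HSF1 promoter on a CEN plasmid in hsf1-deleted S. cerevisiae PS128. Cells were selected at 37°C on -trp 5-FOA plates for 0, 2, 4, 6 and 8 days and amplicons were sequenced. Growth estimate is the slope of a robust linear fit of total-sum-normalised read counts (normalised to the first time point) over time, using at least 2 replicates. Sequences are classed functional (TAD activity) above a threshold of -0.13, set from stop-codon control sequences.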

Substance	growth estimate
RFQRRIRRSPSRLFLGEASR	< -0.25
VDRRLARYRVHSAQKRRLSS	< -0.25
RMDSTRFHRVVKWGPAMGEM	< -0.25
RGRLGLSDGQ	< -0.25
EPT	< -0.25
KRDRKPLPVGGRYPWDEVMD	< -0.25
HSYT	< -0.25
LSASDHVAFITTIRSLTAKW	< -0.25
GRGDSVRLRKLVDASPRGWV	< -0.25
IRPQDRSDMNKGNTLLTRQS	< -0.25
RSTRFCFKPRQ	< -0.25
ARETCLPATKVPGSF	< -0.25
NLGSVGESSQA	< -0.25
AKSQKLSASVDTGQGRL	< -0.25
NRLG	< -0.25
CCLGVKLTESLVNNAQNVSL	< -0.25
SFGTVP	< -0.25
GLWLFSRRLLCRSTGRAIRP	< -0.25
RQKCQEMENPANNGSSPIQA	< -0.25
ALVELTSYPSPVVPCCQC	< -0.25
KNSASNVQGSDQSVGFTSLT	< -0.25
ELGHPKVGHINVYRTKSATE	< -0.25
LNKFR	< -0.25
VAFGSAVQLGFLALCWSEGH	< -0.25
QGDDYCTNRVVRI	< -0.25
STTT	< -0.25

Substance	growth estimate
GCGKL	< -0.25
HRPVPSNRTGKAGKDAIPSP	< -0.25
PSQSLDRSGLIPWKYISKLT	< -0.25
PTVVKSTF	< -0.25
GLRHQLWDWLLVGVRTKACT	< -0.25
RNHVK	< -0.25
MLIACRTRLSATN	< -0.25
HRVRGRIRIDTN	-0.246
RRMFIYPATHRLSTRGGRHS	-0.245
KTQRDGLQLESVQ	< -0.25
ILQP	< -0.25
CMHIRDLLAASPSGLLNALC	< -0.25
LNVCYWFG	< -0.25
AYPWIC	< -0.25
NDLMQESTDESEEQ	< -0.25
EDDSFFLGRVIYYLPWANGR	< -0.25
EIVIRFLERAVWLSRPPDGG	< -0.25
RSLSKWPGCRKSTYTTNRAP	< -0.25
CLRRHRTCTVYLILGLAGVL	< -0.25
LIARPALITHR	< -0.25
YLGVPSSSYWATRWPRTRFP	< -0.25
VRYADAQNTLGTRGVL	< -0.25
IWSQISDLELSIISRALDES	< -0.25
IRMSSG	< -0.25
TLNGLSLSDDIYFTSI	0.408
PFRGRFFGPRTGWPRS	< -0.25

Substance	growth estimate
SGDRITGGSPSRLLRVRPGL	< -0.25
MAPAVPFTRLVVMVAAAESL	< -0.25
IPPDTRAIPLQGCLWALASK	< -0.25
RPWIACKCHRNAGRAWASDS	< -0.25
NLRLDPI	< -0.25
ILRPRPSGVMRAQLHTVVRY	-0.243
PESVINIDGTGEKFI	< -0.25
TRWTRGIAGRNLTLVL	< -0.25
KCIIAG	< -0.25
PKFVGKG	< -0.25
FERGLHGGRRRSRCGYRRRG	< -0.25
PEE	< -0.25
SASLWTSTGLQTQ	< -0.25
RCSQSTIKLKERQWTRSRAG	-0.245
IQLSTEASDRTGS	< -0.25
LRMAGKSEFVRACWGH	< -0.25
ILPPNH	< -0.25
RHVTWFGRCFRVGYNCVGEH	< -0.25
LQYPRGEPFLLLR	< -0.25
GSETNVINVLHIGQTLY	-0.246
CSVLNGAPRCSRYS	< -0.25
RVLGSTSK	< -0.25
TRRGGGNRALNTQGGLLRRV	< -0.25
ASSKQTGSISH	< -0.25
WSAQS	< -0.25
CHRGTPALDGGPLVSPTWVA	< -0.25

Substance	growth estimate
LPLRSADRFKTSMTEREVLT	0.146
GLNRKPTQIFTLRLEVFRAG	< -0.25
FGLEPGLEFSIFSGVMFLLV	< -0.25
SSNVSTHGRIPVPEIG	< -0.25
YVPSYIESSHQDIGSKRKYC	< -0.25
GTPNIRRRSRQP	< -0.25
VNNTAQLGVQVCDQDFWGI	< -0.25
AKLLS	< -0.25
GQPVSDTVVWDWGFTAQEEP	0.283
KSRMAVPVEGF	< -0.25
ELWFPWRKIIVRWVITHNSR	< -0.25
TAVP	< -0.25
DALA	< -0.25
WCTHSCLESTHIRQEPVIRP	< -0.25
SENEIGGRVLPTGACGGDHP	< -0.25
GGCHWNPRLALKGQSTIGQK	< -0.25
STALNPVA	< -0.25
AGCRMA	< -0.25
VGCNGSRQEQTRDYPAECSG	< -0.25
RGATVDLNSEVTKNLT	< -0.25
LSRPL	< -0.25
VCAQSYIS	-0.25
KLDLQEQRR	< -0.25
GEYDCVTALIAGPKHVAYFG	< -0.25
GPRKSLAVLSRDLDYNKLAG	< -0.25
SVPLWYRGDRCRGPRH	< -0.25

Substance	growth estimate
PVPIYM	< -0.25
LACQGSQ	< -0.25
STRVTLPAVGSSVHDKL	< -0.25
PAIGGDRSAIGMQKLSKTSL	< -0.25
RFPGCWCLRPDSRGNLSPSV	< -0.25
YANDVRR	< -0.25
VPLLPQS	< -0.25
VFMRKVTHGGQWLRLI	< -0.25
RCRGNEYIQQQARGVGSVYM	< -0.25
GTSEPALTQ	< -0.25
MGITEMGNPGFARNF	< -0.25
LSDRGGGS	< -0.25
AVGPAPGHRGTGGEPYFSYG	< -0.25
QSRANGTNKGQLGLQIRTRQ	< -0.25
LTRRPLIGTVRGTVKV	< -0.25
IRDRHPVSKEPSVGY	< -0.25
EYRPRFGAATMCWQFWTNEM	< -0.25
KLLKGAWKDIDEARQSEARQ	< -0.25
SGRAKQECRNRSCHHFA	-0.25
DWGDLVYVLATCISQTSSAI	< -0.25
ASHHSRKCW	< -0.25
DRWYIQSPRAPIRTGCHSRS	< -0.25
SDRDE	< -0.25
PSHAVSSAQLSTRRDGRACR	< -0.25
AAS	< -0.25
EDVGRAP	< -0.25

No new results follow: an excerpt of the list.
Substance	growth estimate
GLWLFSRRLLCRSTGRAIRP	< -0.25
RQKCQEMENPANNGSSPIQA	< -0.25
ALVELTSYPSPVVPCCQC	< -0.25
KNSASNVQGSDQSVGFTSLT	< -0.25
ELGHPKVGHINVYRTKSATE	< -0.25

(further entries)

Substance	growth estimate
GEHI	< -0.25
LQRSSMGRNIGYR	< -0.25
TFA	< -0.25
RLVG	< -0.25
GPSNSAYPLRGC	< -0.25
DTP	< -0.25
KMYLLCRTTV	< -0.25
TSCCGSNTDGKLVSRTRKRH	< -0.25
GILSLRSLVKRDA	< -0.25
SASLIKVAHDAGSQRSLTIA	< -0.25
SARRKPVVTLKVRVKAL	< -0.25
RGLPKGAKSGTPDVGKTLRM	< -0.25
ADVLGIIPIKMRRNRGRPCL	< -0.25
GEHELLFEVFFGWGCFVKSC	< -0.25
CVSTFPVKSLDYTRRGCAGR	< -0.25
YTAVDRLL	< -0.25
HCGRDQGRDKLQPIRRLSQR	< -0.25
ILTQGSTVSPPYHRVGPITS	< -0.25
YVGSFCLSSLAILCFYKQSD	< -0.25
HREGQRGGSQYGQGYVQRKS	-0.246
CVPHTWARERSIPQIPAPSD	< -0.25
LRFYLVGSRARLFDRCISPN	< -0.25
